Laboratory results reported in PMC7862700.
The entries are a selection whose mix differs from that of the whole data set. At the low end of the ranking the order means little.

How the values were obtained:
Assay in all cases: DAPPL (digital affinity profiling via proximity ligation, sequencing)
Conditions in all cases: 10 mM Tris-HCl pH 7.5, 50 mM NaCl, 1 mM DTT, 4% glycerol, room temperature, 30 min; GST-TFs on glutathione beads, 16-mer random dsDNA library, 0.1% …; high values mean tight binding; double strand, one strand shown; scale: fold enrichment (6-mer frequency, TF over GST control)
[1] = molecular target: T1, ELK1 (UniProt P19419)
T1 sequence: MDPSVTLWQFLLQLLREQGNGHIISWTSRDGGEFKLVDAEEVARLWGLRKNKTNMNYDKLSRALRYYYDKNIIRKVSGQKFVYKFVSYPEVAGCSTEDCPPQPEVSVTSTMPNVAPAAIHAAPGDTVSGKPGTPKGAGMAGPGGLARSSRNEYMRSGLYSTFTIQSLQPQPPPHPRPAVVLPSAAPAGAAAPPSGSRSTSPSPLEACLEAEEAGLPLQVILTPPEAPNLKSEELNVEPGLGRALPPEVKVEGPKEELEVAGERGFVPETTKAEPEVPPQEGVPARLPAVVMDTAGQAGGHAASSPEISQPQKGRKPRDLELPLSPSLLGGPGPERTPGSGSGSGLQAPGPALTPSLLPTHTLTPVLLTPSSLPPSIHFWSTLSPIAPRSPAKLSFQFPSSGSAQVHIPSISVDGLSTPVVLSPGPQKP

[2] = molecular target: T2, ELK3 (UniProt P41970)
T2 sequence: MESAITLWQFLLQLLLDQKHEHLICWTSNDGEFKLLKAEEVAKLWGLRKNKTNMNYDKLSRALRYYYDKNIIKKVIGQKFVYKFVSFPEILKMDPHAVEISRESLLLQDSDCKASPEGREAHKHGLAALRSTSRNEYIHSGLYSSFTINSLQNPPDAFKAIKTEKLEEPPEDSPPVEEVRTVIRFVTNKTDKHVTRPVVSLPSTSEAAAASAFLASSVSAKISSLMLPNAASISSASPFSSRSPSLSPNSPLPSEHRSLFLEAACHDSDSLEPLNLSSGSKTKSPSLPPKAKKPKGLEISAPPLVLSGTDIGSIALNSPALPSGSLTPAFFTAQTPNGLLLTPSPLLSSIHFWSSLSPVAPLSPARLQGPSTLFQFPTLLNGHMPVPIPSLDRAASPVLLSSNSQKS

[3] = molecular target: T3, SPIC (UniProt Q8N5J4)
T3 sequence: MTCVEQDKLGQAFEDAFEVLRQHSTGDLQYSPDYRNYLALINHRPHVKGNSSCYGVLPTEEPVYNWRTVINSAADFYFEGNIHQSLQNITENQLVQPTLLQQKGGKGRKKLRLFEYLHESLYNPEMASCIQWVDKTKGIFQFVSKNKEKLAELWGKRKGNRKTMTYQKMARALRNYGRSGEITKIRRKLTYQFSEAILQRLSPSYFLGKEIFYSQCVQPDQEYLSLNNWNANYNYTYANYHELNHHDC

[4] = molecular target: T4, ETS2 (UniProt P15036)
T4 sequence: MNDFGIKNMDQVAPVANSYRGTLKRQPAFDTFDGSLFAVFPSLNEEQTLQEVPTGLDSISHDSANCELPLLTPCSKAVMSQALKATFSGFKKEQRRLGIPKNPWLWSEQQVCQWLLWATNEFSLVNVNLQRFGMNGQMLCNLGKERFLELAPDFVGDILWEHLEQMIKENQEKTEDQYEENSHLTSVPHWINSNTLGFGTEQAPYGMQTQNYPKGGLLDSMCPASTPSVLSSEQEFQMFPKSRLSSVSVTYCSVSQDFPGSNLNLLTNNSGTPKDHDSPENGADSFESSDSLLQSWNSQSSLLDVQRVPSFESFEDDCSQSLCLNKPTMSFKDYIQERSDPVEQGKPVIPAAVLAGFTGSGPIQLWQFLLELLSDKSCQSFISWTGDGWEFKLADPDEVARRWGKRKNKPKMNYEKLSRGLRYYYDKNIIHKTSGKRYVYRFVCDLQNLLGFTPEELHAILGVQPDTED

[5] = molecular target: T5, ETV3 (UniProt P41162-2)
T5 sequence: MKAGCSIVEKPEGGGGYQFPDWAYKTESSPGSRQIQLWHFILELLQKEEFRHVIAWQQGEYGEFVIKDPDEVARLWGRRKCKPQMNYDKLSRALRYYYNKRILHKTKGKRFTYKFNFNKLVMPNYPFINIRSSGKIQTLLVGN

Sequence	binding signal [1]	binding signal [2]	binding signal [3]	binding signal [4]	binding signal [5]
GAGCTA	0.954	0.837	0.908	0.882	0.896
AGTCTG	0.606	0.537	0.623	0.576	0.615
GAGTTG	0.525	0.522	0.44	0.468	0.494
GGCCAA	0.808	0.807	0.795	0.809	0.829
GCACGG	0.777	0.794	0.811	0.852	0.854
CAGCCA	0.849	0.843	0.784	0.831	0.834
CGGTCA	0.789	0.817	0.741	0.848	0.761
GACAAC	0.92	0.965	0.881	0.94	0.946
CGGAGC	0.404	0.38	0.335	0.359	0.382
CAGAGG	0.61	0.596	0.605	0.678	0.624
GACGCT	0.806	0.742	0.801	0.789	0.754
GGTTCG	0.78	0.655	0.928	0.681	0.748
GAGCTG	0.725	0.679	0.734	0.682	0.775
CGCGGG	0.738	0.798	0.72	0.794	0.791
GAGTGT	0.538	0.465	0.585	0.532	0.553
GGCTGG	0.795	0.716	0.803	0.792	0.8
GGCCGG	0.576	0.614	0.533	0.616	0.574
AGAGTG	0.621	0.673	0.495	0.598	0.58
CACAGG	0.911	0.874	0.807	0.912	0.907
GACCAG	0.612	0.721	0.597	0.633	0.625
CGCAGG	0.896	0.907	0.758	0.848	0.815
GGAGAG	0.284	0.275	0.282	0.264	0.275
AGAGCG	0.446	0.439	0.46	0.402	0.478
GCAGTT	0.879	0.838	0.836	0.813	0.853
GGACAG	0.649	0.54	0.546	0.591	0.55
GAGATG	0.722	0.617	0.771	0.648	0.72
TGGAGA	0.366	0.424	0.48	0.417	0.438
TAGACG	0.739	0.711	0.709	0.758	0.728

Sequence	binding signal [1]	binding signal [2]	binding signal [3]	binding signal [4]	binding signal [5]
AGGAGG	0.21	0.245	0.24	0.227	0.227
CGCAGC	0.86	0.789	0.83	0.817	0.776
CGGTTG	0.824	0.883	0.712	0.765	0.77
GTCGCT	0.865	0.98	0.757	0.779	0.802
GCGGTT	0.762	0.808	0.823	0.728	0.752
AGAGGA	0.624	0.696	0.748	0.669	0.674
GCGTGG	0.512	0.583	0.503	0.539	0.551
GGAAGG	0.844	0.805	0.795	0.848	0.899
ACCGCG	0.928	0.791	0.929	0.87	0.863
TAGGGG	0.849	0.874	0.794	0.802	0.897
GGCACA	0.798	0.741	0.884	0.839	0.9
ATCGTG	0.413	0.443	0.389	0.416	0.405
AGCGTT	0.84	0.941	0.965	0.943	0.938
CAGTCA	0.474	0.488	0.426	0.497	0.492
GAGCAT	0.75	0.757	0.901	0.726	0.752
TCGGAG	0.194	0.195	0.204	0.19	0.179
GGCGTG	0.341	0.345	0.337	0.319	0.305
AGGCCG	0.49	0.497	0.473	0.5	0.496
GGAGCA	0.468	0.452	0.443	0.434	0.439
GAAGGC	0.884	0.915	0.928	0.888	0.95
GCTGGA	0.787	0.635	0.912	0.858	0.834
GTGAGC	0.432	0.366	0.404	0.384	0.394
AGTGTG	0.64	0.641	0.767	0.692	0.665
GACAGC	0.81	0.704	0.673	0.846	0.735
GGGTCG	0.571	0.558	0.602	0.658	0.587
TGTGTA	0.873	0.914	0.882	0.889	0.874
GCGGGA	0.398	0.377	0.33	0.378	0.35

Two entries picked at random from those above, as already listed:
Sequence	binding signal [1]	binding signal [2]	binding signal [3]	binding signal [4]	binding signal [5]
GAAGGC	0.884	0.915	0.928	0.888	0.95
GACAGC	0.81	0.704	0.673	0.846	0.735
